Laboratory results as given in the supplement of paper PMC12823440, “Inhibitors supercharge kinase turnover through native proteolytic circuits” (Nature, 2025).
Counter-ions that a name gives are not always drawn. This is one part of the list. The calls rarely recur for the same compound in another form.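 Kinases, fused to nanoluciferase, were expressed in K562 cells; luminescence was measured every 4 h from 2 to 18 h as percent of control (DMSO = 100%, positive control = 0%). A time point is decreased if signal falls significantly (2 sigma). Hits were called by the authors by a rule that is not shown; the count of time points alone does not decide it.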

Chains of the proteins cited; added tags and fusions are not shown. Lines headed by an entry give the natural chain unless they say otherwise; changes in a name come on top.
UniProt P06239: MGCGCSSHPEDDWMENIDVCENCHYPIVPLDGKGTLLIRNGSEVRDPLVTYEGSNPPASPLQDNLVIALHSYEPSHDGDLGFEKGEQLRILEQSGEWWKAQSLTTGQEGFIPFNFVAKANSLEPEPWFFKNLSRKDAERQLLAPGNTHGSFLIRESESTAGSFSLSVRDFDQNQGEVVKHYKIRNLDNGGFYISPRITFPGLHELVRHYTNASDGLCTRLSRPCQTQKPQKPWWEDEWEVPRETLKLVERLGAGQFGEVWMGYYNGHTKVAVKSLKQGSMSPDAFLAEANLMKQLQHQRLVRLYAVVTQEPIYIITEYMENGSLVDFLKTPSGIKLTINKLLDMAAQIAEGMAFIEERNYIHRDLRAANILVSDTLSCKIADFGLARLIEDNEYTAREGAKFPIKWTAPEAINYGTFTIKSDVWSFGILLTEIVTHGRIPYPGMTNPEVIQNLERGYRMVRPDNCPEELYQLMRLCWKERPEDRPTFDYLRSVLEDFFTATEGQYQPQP
UniProt Q8IWU2: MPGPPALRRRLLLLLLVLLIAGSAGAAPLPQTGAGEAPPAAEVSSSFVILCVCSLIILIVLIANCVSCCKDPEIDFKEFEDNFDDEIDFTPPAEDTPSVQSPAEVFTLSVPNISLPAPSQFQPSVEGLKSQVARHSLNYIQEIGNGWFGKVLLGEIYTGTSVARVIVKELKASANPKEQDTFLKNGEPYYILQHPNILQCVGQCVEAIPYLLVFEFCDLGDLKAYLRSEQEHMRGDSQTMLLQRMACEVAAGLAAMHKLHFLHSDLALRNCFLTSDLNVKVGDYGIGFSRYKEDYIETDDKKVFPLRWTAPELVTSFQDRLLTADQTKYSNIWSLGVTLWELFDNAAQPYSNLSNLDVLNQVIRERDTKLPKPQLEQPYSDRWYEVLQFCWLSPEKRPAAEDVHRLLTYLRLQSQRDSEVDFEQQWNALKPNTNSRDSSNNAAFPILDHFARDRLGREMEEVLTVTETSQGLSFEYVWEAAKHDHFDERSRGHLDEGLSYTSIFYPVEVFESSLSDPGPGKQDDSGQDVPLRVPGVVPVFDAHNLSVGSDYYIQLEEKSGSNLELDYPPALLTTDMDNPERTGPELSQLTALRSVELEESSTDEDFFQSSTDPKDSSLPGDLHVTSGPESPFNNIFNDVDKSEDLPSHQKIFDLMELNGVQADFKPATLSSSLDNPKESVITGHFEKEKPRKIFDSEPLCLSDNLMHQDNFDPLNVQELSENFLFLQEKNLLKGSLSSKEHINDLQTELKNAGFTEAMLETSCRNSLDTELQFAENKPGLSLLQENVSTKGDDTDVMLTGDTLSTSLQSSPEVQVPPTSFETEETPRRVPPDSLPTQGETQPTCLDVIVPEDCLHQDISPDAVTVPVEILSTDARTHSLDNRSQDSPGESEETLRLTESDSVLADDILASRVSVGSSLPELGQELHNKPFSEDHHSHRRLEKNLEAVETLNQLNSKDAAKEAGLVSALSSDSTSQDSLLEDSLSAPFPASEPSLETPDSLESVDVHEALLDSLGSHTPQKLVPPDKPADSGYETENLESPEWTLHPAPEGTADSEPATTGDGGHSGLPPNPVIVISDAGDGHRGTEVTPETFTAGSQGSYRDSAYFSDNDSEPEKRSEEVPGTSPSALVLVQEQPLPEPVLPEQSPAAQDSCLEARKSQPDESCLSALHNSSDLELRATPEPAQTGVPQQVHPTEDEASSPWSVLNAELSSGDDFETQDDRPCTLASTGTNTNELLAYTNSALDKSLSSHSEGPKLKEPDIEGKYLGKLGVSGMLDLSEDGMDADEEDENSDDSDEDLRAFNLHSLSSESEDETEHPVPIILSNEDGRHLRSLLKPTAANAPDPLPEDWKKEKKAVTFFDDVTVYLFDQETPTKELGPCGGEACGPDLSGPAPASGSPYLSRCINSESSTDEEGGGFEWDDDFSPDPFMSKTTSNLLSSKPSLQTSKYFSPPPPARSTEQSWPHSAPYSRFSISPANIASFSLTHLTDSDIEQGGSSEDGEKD
UniProt P07948: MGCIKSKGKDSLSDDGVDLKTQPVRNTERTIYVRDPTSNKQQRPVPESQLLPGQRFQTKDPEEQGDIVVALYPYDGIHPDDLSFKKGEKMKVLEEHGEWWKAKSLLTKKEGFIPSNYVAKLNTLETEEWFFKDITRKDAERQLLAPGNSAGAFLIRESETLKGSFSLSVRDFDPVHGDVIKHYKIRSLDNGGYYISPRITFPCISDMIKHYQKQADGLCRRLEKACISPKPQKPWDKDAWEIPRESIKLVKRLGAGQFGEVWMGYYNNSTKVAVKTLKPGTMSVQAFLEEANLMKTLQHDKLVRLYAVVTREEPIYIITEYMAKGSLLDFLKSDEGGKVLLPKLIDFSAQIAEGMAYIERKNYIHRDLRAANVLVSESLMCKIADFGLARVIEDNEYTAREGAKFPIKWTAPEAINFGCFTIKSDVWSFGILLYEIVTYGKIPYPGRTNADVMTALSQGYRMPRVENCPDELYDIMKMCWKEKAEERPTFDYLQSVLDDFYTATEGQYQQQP
UniProt P28482, whole entry: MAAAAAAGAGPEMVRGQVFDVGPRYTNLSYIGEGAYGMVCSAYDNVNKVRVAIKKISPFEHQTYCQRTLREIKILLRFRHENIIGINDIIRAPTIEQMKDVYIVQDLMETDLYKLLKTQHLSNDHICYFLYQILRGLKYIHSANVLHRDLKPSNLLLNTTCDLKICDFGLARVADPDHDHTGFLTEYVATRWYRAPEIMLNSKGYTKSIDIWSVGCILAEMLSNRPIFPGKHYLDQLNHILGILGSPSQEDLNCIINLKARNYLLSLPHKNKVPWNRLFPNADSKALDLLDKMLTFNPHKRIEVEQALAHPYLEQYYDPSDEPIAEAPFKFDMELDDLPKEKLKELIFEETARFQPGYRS
UniProt P49137, whole entry, looked up: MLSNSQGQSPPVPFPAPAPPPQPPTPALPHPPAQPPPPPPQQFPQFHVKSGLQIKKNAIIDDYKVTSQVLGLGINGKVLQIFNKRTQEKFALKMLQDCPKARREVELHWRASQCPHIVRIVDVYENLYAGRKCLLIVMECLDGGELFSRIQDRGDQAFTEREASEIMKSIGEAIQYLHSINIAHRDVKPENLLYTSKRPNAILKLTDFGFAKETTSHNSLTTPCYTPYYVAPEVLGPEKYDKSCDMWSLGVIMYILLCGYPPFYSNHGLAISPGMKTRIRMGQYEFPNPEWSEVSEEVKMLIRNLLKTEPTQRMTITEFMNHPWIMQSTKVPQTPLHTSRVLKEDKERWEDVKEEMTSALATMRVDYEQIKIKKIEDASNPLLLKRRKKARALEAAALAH
UniProt Q9BUB5: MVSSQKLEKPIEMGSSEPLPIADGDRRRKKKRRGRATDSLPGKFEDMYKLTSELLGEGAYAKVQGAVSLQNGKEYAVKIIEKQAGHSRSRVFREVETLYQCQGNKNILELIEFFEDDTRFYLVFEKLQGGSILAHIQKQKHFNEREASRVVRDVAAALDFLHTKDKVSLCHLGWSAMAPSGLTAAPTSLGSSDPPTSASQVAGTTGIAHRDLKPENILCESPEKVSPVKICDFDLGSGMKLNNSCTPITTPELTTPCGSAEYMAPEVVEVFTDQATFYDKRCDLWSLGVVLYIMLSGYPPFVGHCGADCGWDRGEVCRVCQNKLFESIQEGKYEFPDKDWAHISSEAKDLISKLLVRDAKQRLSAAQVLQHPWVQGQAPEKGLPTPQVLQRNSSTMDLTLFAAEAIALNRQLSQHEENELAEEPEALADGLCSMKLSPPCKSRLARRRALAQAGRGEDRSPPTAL
UniProt Q16288, whole entry, looked up: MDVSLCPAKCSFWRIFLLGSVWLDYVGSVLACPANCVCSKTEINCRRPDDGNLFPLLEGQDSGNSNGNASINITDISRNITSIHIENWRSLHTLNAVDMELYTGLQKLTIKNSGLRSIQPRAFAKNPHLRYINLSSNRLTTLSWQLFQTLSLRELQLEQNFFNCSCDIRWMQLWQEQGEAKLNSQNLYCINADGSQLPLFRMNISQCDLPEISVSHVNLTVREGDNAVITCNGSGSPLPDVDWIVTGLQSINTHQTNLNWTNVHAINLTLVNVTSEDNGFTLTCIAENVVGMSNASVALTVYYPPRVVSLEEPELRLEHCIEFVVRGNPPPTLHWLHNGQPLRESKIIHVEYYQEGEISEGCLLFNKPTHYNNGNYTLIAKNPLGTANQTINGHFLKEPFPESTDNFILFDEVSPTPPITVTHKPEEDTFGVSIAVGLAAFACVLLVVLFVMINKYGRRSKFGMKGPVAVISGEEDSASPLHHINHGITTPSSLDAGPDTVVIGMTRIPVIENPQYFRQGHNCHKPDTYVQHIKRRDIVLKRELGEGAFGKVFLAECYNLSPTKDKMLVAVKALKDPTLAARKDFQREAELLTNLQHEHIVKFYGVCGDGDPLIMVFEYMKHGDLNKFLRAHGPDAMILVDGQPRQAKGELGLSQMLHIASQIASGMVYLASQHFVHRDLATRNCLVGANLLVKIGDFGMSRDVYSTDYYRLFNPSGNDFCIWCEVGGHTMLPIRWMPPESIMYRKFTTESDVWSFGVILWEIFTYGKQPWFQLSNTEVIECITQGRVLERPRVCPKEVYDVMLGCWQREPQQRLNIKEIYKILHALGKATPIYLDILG
UniProt Q96KB5: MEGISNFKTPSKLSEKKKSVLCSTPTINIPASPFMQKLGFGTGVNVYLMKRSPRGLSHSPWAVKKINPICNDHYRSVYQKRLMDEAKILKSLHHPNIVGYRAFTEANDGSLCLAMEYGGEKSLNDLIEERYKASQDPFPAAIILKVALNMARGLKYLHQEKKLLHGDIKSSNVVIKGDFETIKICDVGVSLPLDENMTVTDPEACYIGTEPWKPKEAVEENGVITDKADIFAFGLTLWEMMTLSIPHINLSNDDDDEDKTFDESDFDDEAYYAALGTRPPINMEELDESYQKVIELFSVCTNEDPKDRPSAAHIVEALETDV
UniProt P09619, whole entry: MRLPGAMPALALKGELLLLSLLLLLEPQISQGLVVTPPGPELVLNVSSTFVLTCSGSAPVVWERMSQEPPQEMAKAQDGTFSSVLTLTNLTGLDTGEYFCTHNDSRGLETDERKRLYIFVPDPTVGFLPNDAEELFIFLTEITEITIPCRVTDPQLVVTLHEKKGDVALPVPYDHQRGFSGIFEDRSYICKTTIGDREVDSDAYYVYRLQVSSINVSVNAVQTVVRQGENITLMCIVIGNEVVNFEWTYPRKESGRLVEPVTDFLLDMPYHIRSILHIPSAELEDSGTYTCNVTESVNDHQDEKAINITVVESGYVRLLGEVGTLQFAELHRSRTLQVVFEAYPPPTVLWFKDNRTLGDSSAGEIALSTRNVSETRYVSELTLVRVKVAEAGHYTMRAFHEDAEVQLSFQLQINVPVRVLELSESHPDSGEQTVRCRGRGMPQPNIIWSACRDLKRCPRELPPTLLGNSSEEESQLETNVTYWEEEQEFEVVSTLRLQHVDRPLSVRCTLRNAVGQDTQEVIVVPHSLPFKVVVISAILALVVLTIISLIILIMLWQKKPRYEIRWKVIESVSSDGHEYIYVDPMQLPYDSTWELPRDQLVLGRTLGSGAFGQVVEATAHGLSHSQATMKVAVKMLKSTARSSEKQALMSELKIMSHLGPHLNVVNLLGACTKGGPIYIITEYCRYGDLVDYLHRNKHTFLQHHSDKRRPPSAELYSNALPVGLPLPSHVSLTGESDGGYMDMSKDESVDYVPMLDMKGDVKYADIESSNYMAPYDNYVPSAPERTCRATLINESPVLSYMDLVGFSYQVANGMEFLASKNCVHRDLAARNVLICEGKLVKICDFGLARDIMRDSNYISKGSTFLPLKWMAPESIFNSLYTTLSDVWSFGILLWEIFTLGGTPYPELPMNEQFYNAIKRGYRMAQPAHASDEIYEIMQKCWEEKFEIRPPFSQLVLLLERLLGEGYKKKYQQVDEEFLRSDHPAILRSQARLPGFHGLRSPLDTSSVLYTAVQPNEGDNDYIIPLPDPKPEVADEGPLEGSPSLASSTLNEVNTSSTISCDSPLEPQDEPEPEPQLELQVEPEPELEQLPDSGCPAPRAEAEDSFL
UniProt Q15118, whole entry, looked up: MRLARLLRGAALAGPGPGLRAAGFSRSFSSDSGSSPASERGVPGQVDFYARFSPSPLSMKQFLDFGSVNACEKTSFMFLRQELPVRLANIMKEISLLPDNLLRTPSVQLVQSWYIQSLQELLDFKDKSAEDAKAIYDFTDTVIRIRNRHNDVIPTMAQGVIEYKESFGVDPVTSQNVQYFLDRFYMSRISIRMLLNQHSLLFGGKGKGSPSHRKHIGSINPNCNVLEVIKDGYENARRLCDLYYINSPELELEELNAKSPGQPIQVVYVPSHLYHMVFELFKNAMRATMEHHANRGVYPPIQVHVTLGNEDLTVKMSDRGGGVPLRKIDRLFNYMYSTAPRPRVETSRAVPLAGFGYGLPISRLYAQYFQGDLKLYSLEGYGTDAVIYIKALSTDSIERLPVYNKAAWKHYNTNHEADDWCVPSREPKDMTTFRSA

Key:
Assay in all cases: kinase-Nluc reporter destabilization hit call (1 = scored as downregulated) (binary); higher = compound decreases kinase abundance
Conditions in all cases: K562; 2-18 h
IRAK3 = IRAK3 (UniProt Q9Y616)
JAK1 = JAK1 (UniProt P23458)
LCK = LCK (UniProt P06239)
LIMK1 = LIMK1 (UniProt P53667)
LIMK2 = LIMK2 (UniProt P53671)
LMTK2 = LMTK2 (UniProt Q8IWU2)
LYN = LYN (UniProt P07948)
MAP2K1 = MAP2K1 (UniProt Q02750)
MAP2K2 = MAP2K2 (UniProt P36507)
MAP4K2 = MAP4K2 (UniProt Q12851)
MAPK1 = MAPK1 (UniProt P28482)
MAPK4 = MAPK4 (UniProt P31152)
MAPKAPK2 = MAPKAPK2 (UniProt P49137)
MKNK1 = MKNK1 (UniProt Q9BUB5)
NTRK2 = NTRK2 (UniProt Q16620)
NTRK3 = NTRK3 (UniProt Q16288)
PAK4 = PAK4 (UniProt O96013)
PBK = PBK (UniProt Q96KB5)
PDGFRB = PDGFRB (UniProt P09619)
PDK1 = PDK1 (UniProt Q15118)

Measured: kinase-Nluc reporter destabilization hit call

O=C(NOCCO)c1ccc2cncn2c1Nc1ccc(I)cc1F (10 µM)
inactive: IRAK3 = 0 | JAK1 = 0 | LCK 0 | LIMK1 = 0 | LIMK2 = 0 | LMTK2 = 0 | LYN 0 | MAP2K1 = 0 | MAP2K2 = 0 | MAP4K2 = 0 | MAPK1 = 0 | MAPK4 = 0 | MAPKAPK2 = 0 | MKNK1 = 0 | NTRK2 = 0 | NTRK3 = 0 | PAK4 = 0 | PBK 0 | PDGFRB 0 | PDK1 = 0

C=CC(=O)N1CCC[C@@H](n2nc(C(=O)Nc3ccc(CC(=O)N(C)C)c(C)c3C)c3c(N)ncnc32)C1 (10 µM)
inactive: IRAK3 = 0 | JAK1 = 0 | LCK 0 | LIMK1 = 0 | LIMK2 = 0 | LMTK2 = 0 | LYN 0 | MAP2K1 = 0 | MAP2K2 = 0 | MAP4K2 = 0 | MAPK1 = 0 | MAPK4 = 0 | MAPKAPK2 = 0 | MKNK1 = 0 | NTRK2 = 0 | NTRK3 = 0 | PAK4 = 0 | PBK 0 | PDGFRB 0 | PDK1 = 0

N=C(N)NC(=N)NCCc1ccccc1 [Phenformin (hydrochloride)] (10 µM)
inactive: IRAK3 = 0 | JAK1 = 0 | LCK 0 | LIMK1 = 0 | LIMK2 = 0 | LMTK2 = 0 | LYN 0 | MAP2K1 = 0 | MAP2K2 = 0 | MAP4K2 = 0 | MAPK1 = 0 | MAPK4 = 0 | MAPKAPK2 = 0 | MKNK1 = 0 | NTRK2 = 0 | NTRK3 = 0 | PAK4 = 0 | PBK 0 | PDGFRB 0 | PDK1 = 0

COc1ccc(CN2C3CC2CN(c2ccc(-c4cc(OCC(C)(C)O)cn5ncc(C#N)c45)cn2)C3)cn1 [Selpercatinib] (10 µM)
inactive: IRAK3 = 0 | JAK1 = 0 | LCK 0 | LIMK1 = 0 | LIMK2 = 0 | LMTK2 = 0 | LYN 0 | MAP2K1 = 0 | MAP2K2 = 0 | MAP4K2 = 0 | MAPK1 = 0 | MAPK4 = 0 | MAPKAPK2 = 0 | MKNK1 = 0 | NTRK2 = 0 | NTRK3 = 0 | PAK4 = 0 | PBK 0 | PDGFRB 0 | PDK1 = 0

C=C(F)C(=O)N1CCN(c2nc(OC[C@@H]3CCCN3C)nc3c2CCN(c2cccc4cccc(Cl)c24)C3)C[C@@H]1CC#N (2.5 µM)
inactive: IRAK3 = 0 | JAK1 = 0 | LCK 0 | LIMK1 = 0 | LIMK2 = 0 | LMTK2 = 0 | LYN 0 | MAP2K1 = 0 | MAP2K2 = 0 | MAP4K2 = 0 | MAPK1 = 0 | MAPK4 = 0 | MAPKAPK2 = 0 | MKNK1 = 0 | NTRK2 = 0 | NTRK3 = 0 | PAK4 = 0 | PBK 0 | PDGFRB 0 | PDK1 = 0

O=C(Nc1cccc(-c2nncn2C2CC2)c1)c1cc(-n2cnc(C3CC3)c2)ccn1 (10 µM)
inactive: IRAK3 = 0 | JAK1 = 0 | LCK 0 | LIMK1 = 0 | LIMK2 = 0 | LMTK2 = 0 | LYN 0 | MAP2K1 = 0 | MAP2K2 = 0 | MAP4K2 = 0 | MAPK1 = 0 | MAPK4 = 0 | MAPKAPK2 = 0 | MKNK1 = 0 | NTRK2 = 0 | NTRK3 = 0 | PAK4 = 0 | PBK 0 | PDGFRB 0 | PDK1 = 0

CC(C)c1cc(/C=C(\C#N)C(N)=O)cc(C(C)C)c1O (10 µM)
inactive: IRAK3 = 0 | JAK1 = 0 | LCK 0 | LIMK1 = 0 | LIMK2 = 0 | LMTK2 = 0 | LYN 0 | MAP2K1 = 0 | MAP2K2 = 0 | MAP4K2 = 0 | MAPK1 = 0 | MAPK4 = 0 | MAPKAPK2 = 0 | MKNK1 = 0 | NTRK2 = 0 | NTRK3 = 0 | PAK4 = 0 | PBK 0 | PDGFRB 0 | PDK1 = 0

A draw from above in order of formula weight, rising.
N=C(N)NC(=N)NCCc1ccccc1 [Phenformin (hydrochloride)] (10 µM)
inactive: IRAK3 = 0 | JAK1 = 0 | LCK 0 | LIMK1 = 0 | LIMK2 = 0 | LMTK2 = 0 | LYN 0 | MAP2K1 = 0 | MAP2K2 = 0 | MAP4K2 = 0 | MAPK1 = 0 | MAPK4 = 0 | MAPKAPK2 = 0 | MKNK1 = 0 | NTRK2 = 0 | NTRK3 = 0 | PAK4 = 0 | PBK 0 | PDGFRB 0 | PDK1 = 0

CC(C)c1cc(/C=C(\C#N)C(N)=O)cc(C(C)C)c1O (10 µM)
inactive: IRAK3 = 0 | JAK1 = 0 | LCK 0 | LIMK1 = 0 | LIMK2 = 0 | LMTK2 = 0 | LYN 0 | MAP2K1 = 0 | MAP2K2 = 0 | MAP4K2 = 0 | MAPK1 = 0 | MAPK4 = 0 | MAPKAPK2 = 0 | MKNK1 = 0 | NTRK2 = 0 | NTRK3 = 0 | PAK4 = 0 | PBK 0 | PDGFRB 0 | PDK1 = 0

C=C(F)C(=O)N1CCN(c2nc(OC[C@@H]3CCCN3C)nc3c2CCN(c2cccc4cccc(Cl)c24)C3)C[C@@H]1CC#N (2.5 µM)
inactive: IRAK3 = 0 | JAK1 = 0 | LCK 0 | LIMK1 = 0 | LIMK2 = 0 | LMTK2 = 0 | LYN 0 | MAP2K1 = 0 | MAP2K2 = 0 | MAP4K2 = 0 | MAPK1 = 0 | MAPK4 = 0 | MAPKAPK2 = 0 | MKNK1 = 0 | NTRK2 = 0 | NTRK3 = 0 | PAK4 = 0 | PBK 0 | PDGFRB 0 | PDK1 = 0

(further entries)

Cc1cc(C(C)Nc2ccccc2)c2nc(N3CCOCC3)cc(=O)n2c1 (stereo not given) (10 µM)
inactive: IRAK3 = 0 | JAK1 = 0 | LCK 0 | LIMK1 = 0 | LIMK2 = 0 | LMTK2 = 0 | LYN 0 | MAP2K1 = 0 | MAP2K2 = 0 | MAP4K2 = 0 | MAPK1 = 0 | MAPK4 = 0 | MAPKAPK2 = 0 | MKNK1 = 0 | NTRK2 = 0 | NTRK3 = 0 | PAK4 = 0 | PBK 0 | PDGFRB 0 | PDK1 = 0

CC[C@@H](N)CNc1ccnc(-c2cc(-c3cnn(C)c3)ccc2O)n1 (2.5 µM)
inactive: IRAK3 = 0 | JAK1 = 0 | LCK 0 | LIMK1 = 0 | LIMK2 = 0 | LMTK2 = 0 | LYN 0 | MAP2K1 = 0 | MAP2K2 = 0 | MAP4K2 = 0 | MAPK1 = 0 | MAPK4 = 0 | MAPKAPK2 = 0 | MKNK1 = 0 | NTRK2 = 0 | NTRK3 = 0 | PAK4 = 0 | PBK 0 | PDGFRB 0 | PDK1 = 0

O=[N+]([O-])c1ccc(Sc2cccc[n+]2[O-])c2nonc12 (2.5 µM)
inactive: IRAK3 = 0 | JAK1 = 0 | LCK 0 | LIMK1 = 0 | LIMK2 = 0 | LMTK2 = 0 | LYN 0 | MAP2K1 = 0 | MAP2K2 = 0 | MAP4K2 = 0 | MAPK1 = 0 | MAPK4 = 0 | MAPKAPK2 = 0 | MKNK1 = 0 | NTRK2 = 0 | NTRK3 = 0 | PAK4 = 0 | PBK 0 | PDGFRB 0 | PDK1 = 0

Cc1nc(NC(=O)NCCc2nnn(CCF)n2)sc1-c1ccc(S(C)(=O)=O)c(F)c1 (10 µM)
inactive: IRAK3 = 0 | JAK1 = 0 | LCK 0 | LIMK1 = 0 | LIMK2 = 0 | LMTK2 = 0 | LYN 0 | MAP2K1 = 0 | MAP2K2 = 0 | MAP4K2 = 0 | MAPK1 = 0 | MAPK4 = 0 | MAPKAPK2 = 0 | MKNK1 = 0 | NTRK2 = 0 | NTRK3 = 0 | PAK4 = 0 | PBK 0 | PDGFRB 0 | PDK1 = 0

Fc1c(Br)cccc1Nc1ncnc2cc3c(cc12)OCCO3 (2.5 µM)
inactive: IRAK3 = 0 | JAK1 = 0 | LCK 0 | LIMK1 = 0 | LIMK2 = 0 | LMTK2 = 0 | LYN 0 | MAP2K1 = 0 | MAP2K2 = 0 | MAP4K2 = 0 | MAPK1 = 0 | MAPK4 = 0 | MAPKAPK2 = 0 | MKNK1 = 0 | NTRK2 = 0 | NTRK3 = 0 | PAK4 = 0 | PBK 0 | PDGFRB 0 | PDK1 = 0

CCOC(=O)c1c2c3c(cccc3[nH]c1=O)C(=O)c1ccccc1-2 (10 µM)
inactive: IRAK3 = 0 | JAK1 = 0 | LCK 0 | LIMK1 = 0 | LIMK2 = 0 | LMTK2 = 0 | LYN 0 | MAP2K1 = 0 | MAP2K2 = 0 | MAP4K2 = 0 | MAPK1 = 0 | MAPK4 = 0 | MAPKAPK2 = 0 | MKNK1 = 0 | NTRK2 = 0 | NTRK3 = 0 | PAK4 = 0 | PBK 0 | PDGFRB 0 | PDK1 = 0

C[C@@H]1CCc2ncc(F)cc2[C@H]2CCCN2c2ccn3ncc(c3n2)C(=O)N1 [Selitrectinib] (10 µM)
inactive: IRAK3 = 0 | JAK1 = 0 | LCK 0 | LIMK1 = 0 | LIMK2 = 0 | LMTK2 = 0 | LYN 0 | MAP2K1 = 0 | MAP2K2 = 0 | MAP4K2 = 0 | MAPK1 = 0 | MAPK4 = 0 | MAPKAPK2 = 0 | MKNK1 = 0 | NTRK2 = 0 | NTRK3 = 0 | PAK4 = 0 | PBK 0 | PDGFRB 0 | PDK1 = 0

O=C1NC(=O)C(c2cnc3ccccn23)=C1c1cn2c3c(cc(F)cc13)CN(C(=O)N1CCCCC1)CC2 (2.5 µM)
inactive: IRAK3 = 0 | JAK1 = 0 | LCK 0 | LIMK1 = 0 | LIMK2 = 0 | LMTK2 = 0 | LYN 0 | MAP2K1 = 0 | MAP2K2 = 0 | MAP4K2 = 0 | MAPK1 = 0 | MAPK4 = 0 | MAPKAPK2 = 0 | MKNK1 = 0 | NTRK2 = 0 | NTRK3 = 0 | PAK4 = 0 | PBK 0 | PDGFRB 0 | PDK1 = 0

Cc1cnc(Nc2ccc(N3CCN(C)CC3)cc2)nc1Nc1cccc(S(=O)(=O)NC(C)(C)C)c1 (2.5 µM)
inactive: IRAK3 = 0 | JAK1 = 0 | LCK 0 | LIMK1 = 0 | LIMK2 = 0 | LMTK2 = 0 | LYN 0 | MAP2K1 = 0 | MAP2K2 = 0 | MAP4K2 = 0 | MAPK1 = 0 | MAPK4 = 0 | MAPKAPK2 = 0 | MKNK1 = 0 | NTRK2 = 0 | NTRK3 = 0 | PAK4 = 0 | PBK 0 | PDGFRB 0 | PDK1 = 0

CC(C)(C)C(=O)N1N=CC[C@H]1c1ccccc1 (10 µM)
inactive: IRAK3 = 0 | JAK1 = 0 | LCK 0 | LIMK1 = 0 | LIMK2 = 0 | LMTK2 = 0 | LYN 0 | MAP2K1 = 0 | MAP2K2 = 0 | MAP4K2 = 0 | MAPK1 = 0 | MAPK4 = 0 | MAPKAPK2 = 0 | MKNK1 = 0 | NTRK2 = 0 | NTRK3 = 0 | PAK4 = 0 | PBK 0 | PDGFRB 0 | PDK1 = 0

CCc1c(C)sc(NC(=S)NC(=O)c2ccc(Cl)cc2)c1C(N)=O (10 µM)
inactive: IRAK3 = 0 | JAK1 = 0 | LCK 0 | LIMK1 = 0 | LIMK2 = 0 | LMTK2 = 0 | LYN 0 | MAP2K1 = 0 | MAP2K2 = 0 | MAP4K2 = 0 | MAPK1 = 0 | MAPK4 = 0 | MAPKAPK2 = 0 | MKNK1 = 0 | NTRK2 = 0 | NTRK3 = 0 | PAK4 = 0 | PBK 0 | PDGFRB 0 | PDK1 = 0
